Assay results: PMC11078746 (Nature, 2024)
Several values for one entry are separate records, joined by “and”; a condition that tells them apart may be missing. Equal values may be shown once. Further values from the same series stand in other lists.

What was measured:
Assay type in all cases: in vivo
[1] = Mouse body weight, SW48 xenograft study with HRO761
Description: (§1) All animal studies were conducted in accordance with ethics and procedures covered by permit BS-2275 and BS-1975 issued by the Kantonales Veterinäramt Basel-Stadt and in strict adherence to guidelines of the Eidgenössisches Tierschutzgesetz and the Eidgenössische Tierschutzverordnung, Switzerland. All animal studies were approved by the internal ethics committee. All animals had access to food and water ad libitum and were identified with transponders. They were housed in a specific-pathogen-free facility in IVC racks under a 12 h–12 h light–dark cycle. To establish cell-line-derived xenograft models, 6–7-week-old female athymic nude (Crl:NU(NCr)-Foxn1^nu) or SCID-BEIGE (CB17.Cg-PrkdcscidLystbg-J/Crl) mice from Charles River were engrafted subcutaneously with 5 million tumour cells in HBSS (H6648, Sigma-Aldrich). For SNU-407, Lovo, IM95, RL95.2, Ishikawa and IGROV-1, the cells were concentrated in 50% Matrigel (354234, Corning). Patient-derived xenografts were induced and expanded by transplantation as previously described. […] For the efficacy experiment, mice were randomized into groups (n = 5–6) for a mean tumour size of 100–150 mm^3. […] Blood samples were collected on day 7 and 91. […] Tumour responses are reported with the measures of tumour volumes from the treatment start. […] Animals were randomized (n = 3) and tumour samples were collected at 0, 1, 4, 8 and 24 h on the first day and then collected 4 h after the last treatment on day 3, 8, 10, 14 (including a 24 h timepoint), 17 and 21. Tumours were excised, weighed, either frozen in liquid nitrogen and cryogenic dry pulverized with the CryoPrep system (model CP-02, Covaris) or processed to FFPE after fixation. […] On day 12, blood samples were collected for PK analysis. On the last day (3 h after the last treatment), tumours were excised, weighed, frozen in liquid nitrogen and cryogenic dry pulverized for PD analysis.

HCT116 TP53 WT xenograft = experiment: MSI xenograft model efficacy; details: 60 mpk, 60 mg/kg
Description: as §1

[2] = tested on: HCT116 TP53 null xenograft; experiment: MSI xenograft model efficacy; details: HCT116 p53 null, 60 mpk, single mouse, 60 mg/kg
Description: as §1

## CCc1c(N2CCN(C(=O)c3ncnc(C)c3O)CC2)c(=O)n2nc(C3=CCOCC3)nc2n1CC(=O)Nc1ccc(C(F)(F)F)cc1Cl [HRO761]
[1]; HRO761 60mg/kg, day 45 post 1st dose, 60 mg/kg
  Delta BW change, individual mouse: 3.4% and 2.45% and 3.35% and -2.93% and 5.98%
[1]; HRO761 60mg/kg, day 49 post 1st dose, 60 mg/kg
  Delta BW change, individual mouse: 3.4% and 6.53% and 6.69% and -3.35% and 4.27%
[1]; HRO761 60mg/kg, day 52 post 1st dose, 60 mg/kg
  Delta BW change, individual mouse: 3.4% and 6.12% and 7.11% and -10.46% and 5.56%
[1]; HRO761 60mg/kg, day 56 post 1st dose, 60 mg/kg
  Delta BW change, individual mouse: 3.4% and 6.53% and 5.02% and -6.28% and 5.98%
[1]; HRO761 60mg/kg, day 59 post 1st dose, 60 mg/kg
  Delta BW change, individual mouse: 5.96% and 8.57% and 5.44% and -2.51% and 6.84%
[1]; HRO761 60mg/kg, day 63 post 1st dose, 60 mg/kg
  Delta BW change, individual mouse: 3.83% and 5.31% and 5.86% and -2.51% and 12.39%
[1]; HRO761 60mg/kg, day 66 post 1st dose, 60 mg/kg
  Delta BW change, individual mouse: 6.81% and 8.16% and 6.28% and -0.84% and 9.4%
[1]; HRO761 60mg/kg, day 70 post 1st dose, 60 mg/kg
  Delta BW change, individual mouse: 5.11% and 9.8% and 6.28% and -2.09% and 7.69%
[1]; HRO761 60mg/kg, day 73 post 1st dose, 60 mg/kg
  Delta BW change, individual mouse: 5.53% and 8.16% and 7.53% and -2.51% and 8.55%
[1]; HRO761 60mg/kg, day 76 post 1st dose, 60 mg/kg
  Delta BW change, individual mouse: 7.66% and 11.84% and 10.04% and -1.26% and 11.97%
[1]; HRO761 60mg/kg, day 79 post 1st dose, 60 mg/kg
  Delta BW change, individual mouse: 5.96% and 11.43% and 6.69% and -1.67% and 7.69%
[1]; HRO761 60mg/kg, day 83 post 1st dose, 60 mg/kg
  Delta BW change, individual mouse: 6.81% and 9.8% and 6.28% and 0.42% and 9.83%
[1]; HRO761 60mg/kg, day 86 post 1st dose, 60 mg/kg
  Delta BW change, individual mouse: 7.23% and 11.43% and 6.69% and 2.93% and 10.26%
[1]; HRO761 120mg/kg, day 17 post 1st dose, 120 mg/kg
  Delta BW change, individual mouse: 4.56% and 2.66% and -2.42% and 0.46% and 0.44%
[1]; HRO761 120mg/kg, day 21 post 1st dose, 120 mg/kg
  Delta BW change, individual mouse: 7.47% and 4.56% and 2.82% and 5.05% and 6.55%
[1]; HRO761 120mg/kg, day 24 post 1st dose, 120 mg/kg
  Delta BW change, individual mouse: 9.96% and 7.22% and 2.82% and 4.59% and 8.73%
[1]; HRO761 120mg/kg, day 28 post 1st dose, 120 mg/kg
  Delta BW change, individual mouse: 8.71% and 5.7% and 4.44% and 2.75% and 7.86%
[1]; HRO761 120mg/kg, day 31 post 1st dose, 120 mg/kg
  Delta BW change, individual mouse: 9.13% and 7.98% and 3.23% and 0.92% and 11.35%
[1]; HRO761 120mg/kg, day 35 post 1st dose, 120 mg/kg
  Delta BW change, individual mouse: 8.3% and 6.46% and 6.85% and 5.05% and 10.04%
[1]; HRO761 120mg/kg, day 38 post 1st dose, 120 mg/kg
  Delta BW change, individual mouse: 6.64% and 7.22% and 4.03% and 0% and 6.55%
[1]; HRO761 120mg/kg, day 42 post 1st dose, 120 mg/kg
  Delta BW change, individual mouse: 5.81% and 8.37% and 5.65% and 2.29% and 10.92%
[1]; HRO761 120mg/kg, day 45 post 1st dose, 120 mg/kg
  Delta BW change, individual mouse: 7.88% and 9.51% and 4.03% and 2.75% and 10.92%
[1]; HRO761 120mg/kg, day 49 post 1st dose, 120 mg/kg
  Delta BW change, individual mouse: 8.3% and 12.55% and 7.26% and 3.67% and 10.92%
[1]; HRO761 120mg/kg, day 52 post 1st dose, 120 mg/kg
  Delta BW change, individual mouse: 5.81% and 7.6% and 3.23% and 0% and 11.79%
[1]; HRO761 120mg/kg, day 56 post 1st dose, 120 mg/kg
  Delta BW change, individual mouse: 7.05% and 9.89% and 6.45% and 1.83% and 11.35%
[1]; HRO761 120mg/kg, day 59 post 1st dose, 120 mg/kg
  Delta BW change, individual mouse: 8.3% and 10.27% and 7.26% and 3.67% and 10.92%
[1]; HRO761 120mg/kg, day 63 post 1st dose, 120 mg/kg
  Delta BW change, individual mouse: 9.54% and 11.03% and 8.06% and 7.34% and 13.54%
[1]; HRO761 120mg/kg, day 66 post 1st dose, 120 mg/kg
  Delta BW change, individual mouse: 9.13% and 12.93% and 6.05% and 5.5% and 14.41%
[1]; HRO761 120mg/kg, day 70 post 1st dose, 120 mg/kg
  Delta BW change, individual mouse: 7.88% and 11.79% and 6.05% and 5.96% and 16.16%
[1]; HRO761 120mg/kg, day 73 post 1st dose, 120 mg/kg
  Delta BW change, individual mouse: 6.64% and 10.65% and 5.24% and 3.67% and 13.54%
[1]; HRO761 120mg/kg, day 76 post 1st dose, 120 mg/kg
  Delta BW change, individual mouse: 10.37% and 14.83% and 9.27% and 8.72% and 13.97%
[1]; HRO761 120mg/kg, day 79 post 1st dose, 120 mg/kg
  Delta BW change, individual mouse: 9.54% and 12.93% and 6.05% and 5.5% and 12.23%
[1]; HRO761 120mg/kg, day 83 post 1st dose, 120 mg/kg
  Delta BW change, individual mouse: 9.96% and 12.55% and 6.45% and 7.8% and 14.41%
[1]; HRO761 120mg/kg, day 86 post 1st dose, 120 mg/kg
  Delta BW change, individual mouse: 8.3% and 12.55% and 6.05% and 4.13% and 15.72%
HCT116 TP53 WT xenograft; day 7, single mouse
  Tumour volume (TVol): 161.18 mm3 and 348.98 mm3
HCT116 TP53 WT xenograft; day 10, single mouse
  Tumour volume (TVol): 74.12 mm3 and 353.50 mm3 and 171.88 mm3 and 344.19 mm3 and 134.73 mm3 and 348.18 mm3
[2]; day 7
  Tumour volume (TVol): 240.34 mm3 and 270.16 mm3
[2]; day 10
  Tumour volume (TVol): 89.52 mm3 and 288.86 mm3 and 81.72 mm3 and 135.51 mm3 and 171.62 mm3 and 236.68 mm3
